Assays:
[1] = Leaching in water and soil of treated southern yellow pine wafers; conditions: for Concentration of Preservative in Soil after 5 days / Concentration of Preservative in Wafer after 5 days: wafer treated with water and soil; for Concentration of Preservative in Soil after 7 days / Concentration of Preservative in Wafer after 7 days: leaching in water and soil, shaken 7 days
[2] = Corrosivity on steel substrates (carbon steel coupon, two weeks); conditions: negative weight loss means a gain in weight
[3] = Water uptake test (waterproofing efficacy), weathered ponderosa pine wafers

| SMILES | Concentration of Preservative in Soil after 5 days [1] [% w/w] | Concentration of Preservative in Wafer after 5 days [1] [% w/w] | Concentration of Preservative in Soil after 7 days [1] [% w/w] | Concentration of Preservative in Wafer after 7 days [1] [% w/w] | Weight Lost ([2]; listed as 0.3% didecyldimethyl ammonium chloride) [%] | Weight Lost ([2]; listed as 1% didecyldimethyl ammonium chloride) [%] | Water Uptake % of Weathered Wood ([3]; Day 0, Table 13) [%] | Water Uptake % of Weathered Wood ([3]; Day 100, Table 13) [%] | Weight Lost [2] |
| --- | --- | --- | --- | --- | --- | --- | --- | --- | --- |
| CCCCCCCCCCCCCCCCCC[N+](C)(C)Cc1ccccc1.[Cl-] [Octadecylbenzyl dimethyl ammonium chloride, reference compound] | 0.1 | 1.3 | – | – | – | – | – | – | – |
| CCCCCCCCCC[N+](C)(C)CCCCCCCCCC.[Cl-] [Didecyldimethyl ammonium chloride, didecyldimethylammonium chloride, reference compound] | 0.4 | 1.1 | 0.5 | 0.95 | 0.44 | 0.40 | 62 | 73 | – |
| CCCCCCCCCCCC[N+](C)(C)[O-] [Dodecyl dimethylamine oxide, dodecyl dimethylamine oxide] | 05 | 0.7 | 0.15 | 0.5 | – | – | – | – | – |
| CCCCCCCCCCCCCCCC[N+](C)(C)[O-] [Hexadecyl dimethylamine oxide, hexadecyl dimethylamine oxide] | – | – | 0.33 | 1.5 | – | – | – | – | −0.02^1% |
| CCCCCCCCCC[N+](C)(C)[O-] [Decyldimethylamine oxide] | – | – | – | – | – | – | – | – | −0.02% |
